{
  "source": "PubChem BioAssay AID504467",
  "about": "(National Center for Advancing Translational Sciences (NCATS), 2011)",
  "note": "The whole screen tested about 330,000 compounds, of which about 7,700 (2.3%) were called active. Inconclusive results, whose numbers are uncertain, are shown with a selection of clear calls. Calls follow the shape of the dose curve; as a rule, active = well fitted inhibition curve with a large enough effect; inconclusive = small, poorly fitted or top-dose-only effect, or effect the other way; inactive = flat fitted curve, though single readings scatter. Potencies of inconclusive entries are doubtful fits and often do not repeat. % is scaled to controls: 0 for no effect and ±100 for the full control effect; potency is read from the fitted curve at half-maximal effect.",
  "data": [
    {"assay": "qHTS screen for small molecules that inhibit ELG1-dependent DNA repair in human embryonic kidney (HEK293T) cells expressing luciferase-tagged ELG1; also: nearly all actives have a fitted effect of over 55% in size", "conditions": "HEK293T ELG1-luciferase reporter, luminescence, 16 h, DNA damage induced by 5-fluorouridine; activity change, negative = inhibition: at 46.1 µM (top of the series)", "summary_of_the_method": "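Quantitative HTS, concentration-response format. 2,000 cells/well co-treated with 5-fluorouridine and compound, 16 hr in 5% CO2 at 37 °C; ONE-Glo luminescence read after 30 min.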", "values": [
      {"smiles": "CN1CCN(S(=O)(=O)c2ccc(Sc3nnc(-c4cccs4)n3-c3ccccc3)nc2)CC1", "Potency": "inconclusive: 35.5 µM [inhibitor, single point]"},
      {"smiles": "Cc1cccc(N2CCN(C(=O)CN3C(=O)NC(C)(C4CC4)C3=O)CC2)c1C", "note": "(stereo not drawn)", "Potency": "inconclusive: 5.8 µM [activator, full curve, poor fit]"},
      {"smiles": "Cc1ccc(C2NC(=O)c3c(sc4c3CCN(C)C4)N2)s1", "note": "(stereo not drawn)", "Potency": "inconclusive: 7.31 µM [activator, partial curve, poor fit]"},
      {"smiles": "CC(=O)c1ccc(N2CCC(C)CC2)c(F)c1", "activity change, negative = inhibition": "inactive: 14.3%"},
      {"smiles": "Cn1c(O)c(N=Nc2ccccc2[N+](=O)[O-])c2ccccc21", "Potency": "inconclusive: 14.6 µM [activator, partial curve]"},
      {"smiles": "Fc1ccc(C2CC(c3ccco3)=Nc3ccccc3S2)cc1", "note": "(stereo not drawn)", "Potency": "inconclusive: 7.3 µM [activator, partial curve, poor fit]"},
      {"smiles": "COc1cc(/C=N/NC(=O)c2cc(-c3ccc4c(c3)OCO4)n[nH]2)ccc1O", "Potency": "inconclusive: 29.1 µM [inhibitor, single point]"},
      {"smiles": "CC(=O)Nc1ccc(C(=O)OCCc2ccccc2)cc1", "Potency": "inconclusive: 14.6 µM [activator, single point]"},
      {"smiles": "CC(NC(=O)c1cccnc1)C(c1ccccc1)N1CCN(C)CC1", "note": "(stereo not drawn)", "activity change, negative = inhibition": "inactive: 9.02%"},
      {"smiles": "COc1ccc(Cc2noc(CN(C)CC3CCN(Cc4ccccc4)CC3)n2)cc1OC", "Potency": "inconclusive: 29.1 µM [inhibitor, single point]"},
      {"smiles": "c1ccc2cc(OCCCn3ccnc3)ccc2c1", "Potency": "inconclusive: 16.4 µM [activator, partial curve, poor fit]"},
      {"smiles": "CCCCN(C(=O)COC(=O)CSc1ccc([N+](=O)[O-])cc1)c1c(N)n(CCC)c(=O)[nH]c1=O", "Potency": "inconclusive: 25.9 µM [activator, single point]"},
      {"smiles": "Cc1ccc2c(C)c(C(=O)NCCc3ccco3)oc2c1C", "Potency": "inconclusive: 20.6 µM [activator, partial curve, poor fit]"},
      {"smiles": "CCC(C)(C)n1nnnc1C(c1cccs1)N1CCN(c2nc3ccccc3s2)CC1", "note": "(stereo not drawn)", "Potency": "active: 20.6 µM"},
      {"smiles": "CN(C)c1ccc(C(=S)N2CCOCC2)cc1", "Potency": "inconclusive: 29.1 µM [inhibitor, single point]"},
      {"smiles": "CN(C)c1ccc(/C=N/n2ncc3ccccc32)cc1", "Potency": "inconclusive: 2.91 µM [activator, full curve]"},
      {"smiles": "O=C(CN1C(=O)NC(c2ccccc2)(c2ccccc2)C1=O)N1CCN(c2ccc(F)cc2)CC1", "Potency": "inconclusive: 29.1 µM [inhibitor, single point]"},
      {"smiles": "CC1CCN(Cc2nnnn2CCCC(=O)NCCc2cnn(C)c2)CC1", "activity change, negative = inhibition": "inactive: 6.08%"},
      {"smiles": "C=CCn1c(-c2cccc([N+](=O)[O-])c2)n[nH]c1=S", "Potency": "inconclusive: 23.1 µM [activator, single point]"},
      {"smiles": "CC1Cc2nc(SCC(=O)Nc3nccs3)n(C)c(=O)c2S1", "note": "(stereo not drawn)", "activity change, negative = inhibition": "inactive: -8.99%"},
      {"smiles": "O=C(Cn1cnc2ccccc2c1=O)Nc1ccc2c(c1)OCO2", "Potency": "inconclusive: 20.6 µM [activator, partial curve]"},
      {"smiles": "O=C(NC1(C(F)(F)F)NC(=O)N(C2CCCCC2)C1=O)c1cccs1", "note": "(stereo not drawn)", "activity change, negative = inhibition": "inactive: -1.02%"},
      {"smiles": "COC(=O)[C@@H](Cc1ccc(O)cc1)NC(=O)[C@H]1CCC(=O)N1C(=O)OCc1ccccc1", "Potency": "inconclusive: 1.46 µM [activator, partial curve, poor fit]"},
      {"smiles": "CC1CCCN(c2nc(-c3cccnc3)nc3scc(-c4ccccc4)c23)C1", "note": "(stereo not drawn)", "Potency": "inconclusive: 23.1 µM [activator, partial curve, poor fit]"},
      {"smiles": "COc1ccccc1N1CCN(C(=O)c2ccc3c(c2)CCN3S(=O)(=O)c2ccccc2)CC1", "Potency": "inconclusive: 16.4 µM [inhibitor, single point]"},
      {"smiles": "Cc1noc(C)c1S(=O)(=O)N1CCC(C(=O)NCCN2CCC(C)CC2)CC1", "activity change, negative = inhibition": "inactive: -0.792%"},
      {"smiles": "O=C(CN(C1CC1)S(=O)(=O)c1ccc(S(=O)(=O)NC2CCCCC2)cc1)Nc1ccccc1", "Potency": "inconclusive: 18.4 µM [inhibitor, partial curve]"},
      {"smiles": "Cc1ccc(SC2=C(Sc3ccc(C)cc3)C(=O)c3ccccc3C2=O)cc1", "Potency": "inconclusive: 2.06 µM [activator, partial curve]"},
      {"smiles": "CC(=O)N(C)C1=C(O)c2ccccc2C(=O)C1=O", "activity change, negative = inhibition": "inactive: -1.34%"},
      {"smiles": "CCc1ccccc1NC(=O)CN(C1CCCCC1)S(C)(=O)=O", "activity change, negative = inhibition": "inactive: -3.49%"},
      {"smiles": "Cc1ccc(C)c(NC(=O)CN(C)C(=O)c2cc([N+](=O)[O-])ccc2N2CCOCC2)c1", "activity change, negative = inhibition": "inactive: -0.699%"},
      {"smiles": "COCC(=O)NCc1ccc2c(c1)cc(C)n2C", "activity change, negative = inhibition": "inactive: 13.6%"},
      {"smiles": "COc1ccc2cc(CN(CC3CCCO3)C(=O)Nc3ccccc3)c(=O)[nH]c2c1", "note": "(stereo not drawn)", "Potency": "active: 18.3 µM"},
      {"smiles": "Cc1cccc(C(=O)Nc2ccc(C(=O)/C=C/c3cccnc3)cc2)c1", "Potency": "inconclusive: 20.6 µM [activator, partial curve]"},
      {"smiles": "COc1ccc(C(=O)Nc2nnc(C)s2)cc1S(=O)(=O)N1CCOCC1", "Potency": "inconclusive: 16.4 µM [activator, single point]"},
      {"smiles": "CCOC(=O)N1CCN(C(=O)c2cc(COc3ccc(F)cc3F)on2)CC1", "Potency": "inconclusive: 25.9 µM [activator, single point]"},
      {"smiles": "Fc1ccc(OCc2cc(-c3ccccc3)no2)cc1", "Potency": "inconclusive: 20.6 µM [activator, partial curve]"},
      {"smiles": "Nc1nc(N2CCN(C(=O)c3ccco3)CC2)nc2ccccc12", "Potency": "inconclusive: 14.6 µM [activator, partial curve]"},
      {"smiles": "O=C1CC(c2ccc(F)cc2)CC2=C1C=Nc1ccccc1N2", "note": "(stereo not drawn)", "Potency": "inconclusive: 29.1 µM [inhibitor, single point]"},
      {"smiles": "O=C(Nc1ccc([N+](=O)[O-])cc1)c1ccccc1", "Potency": "inconclusive: 8.2 µM [activator, partial curve]"},
      {"smiles": "CCN(C(=O)CCc1nc(-c2ccccc2F)no1)c1cc(OC)ccc1OC", "Potency": "inconclusive: 14.6 µM [inhibitor, partial curve, poor fit]"},
      {"smiles": "CC1(C(=O)Nc2ccc3ccccc3c2)CC1(Br)Br", "note": "(stereo not drawn)", "Potency": "inconclusive: 13 µM [activator, partial curve, poor fit]"},
      {"smiles": "Cc1ccccc1OCC(=O)NNC=O", "activity change, negative = inhibition": "inactive: 2.19%"},
      {"smiles": "C#CCC(NC(=O)c1ccc(C(F)(F)F)cc1)C(=O)NCCC", "note": "(stereo not drawn)", "Potency": "inconclusive: 6.51 µM [activator, partial curve, poor fit]"},
      {"smiles": "CC(=O)Nc1ccc(NC(=O)C(C)OC(=O)CNC(=O)c2ccc(-c3ccccc3)cc2)cc1", "note": "(stereo not drawn)", "Potency": "inconclusive: 29.1 µM [activator, single point]"},
      {"smiles": "O=C(Nc1ccc(F)cc1)Nc1csc2ccccc12", "activity change, negative = inhibition": "inactive: 3.45%"},
      {"smiles": "COc1ccc(CC(=O)OCC(=O)Nc2ccc(Br)cc2)cc1", "activity change, negative = inhibition": "inactive: 4.86%"},
      {"smiles": "CCc1ccc(N2CC(C(=O)OCc3nc4ccsc4c(=O)[nH]3)CC2=O)cc1", "note": "(stereo not drawn)", "activity change, negative = inhibition": "inactive: 14.7%"},
      {"smiles": "FC(F)(F)c1ccc(/C=N/n2c(C3CCCCC3)n[nH]c2=S)cc1", "activity change, negative = inhibition": "inactive: -4.99%"},
      {"smiles": "COc1ccc(C(CNC(=O)c2cc(C)oc2C)N2CCOCC2)cc1", "note": "(stereo not drawn)", "activity change, negative = inhibition": "inactive: 4.53%"},
      {"smiles": "COc1ccc(NC(=O)COc2ccccc2Cl)cc1S(=O)(=O)N1CCCCC1", "Potency": "inconclusive: 18.3 µM [inhibitor, single point]"},
      {"smiles": "CCN1CCN(CC(=O)N2N=C(c3ccc(OC)cc3)CC2c2ccc(OC)cc2)C(=O)C1=O", "note": "(stereo not drawn)", "activity change, negative = inhibition": "inactive: -13.3%"},
      {"smiles": "CSc1nc2ccc(S(=O)(=O)N3CCc4ccccc43)cc2s1", "Potency": "inconclusive: 11.6 µM [inhibitor, partial curve]"},
      {"smiles": "C/C(=N\\NC(=O)c1ccccc1)c1ccc2c(c1)OCO2", "Potency": "inconclusive: 20.6 µM [activator, partial curve]"},
      {"smiles": "CN(Cc1nc(-c2cccnc2)no1)S(=O)(=O)c1ccc(Br)cc1", "Potency": "inconclusive: 25.9 µM [inhibitor, partial curve, poor fit]"},
      {"smiles": "Cc1noc(C)c1COC(=O)c1ccc(-c2nc3ccccc3s2)s1", "Potency": "inconclusive: 4.11 µM [activator, full curve]"},
      {"smiles": "Nc1nc(CSc2nc3ccccc3s2)nc(Nc2ccccc2)n1", "Potency": "inconclusive: 29.1 µM [inhibitor, single point]"},
      {"smiles": "CCC(=O)N1CCc2cc(S(=O)(=O)NC(CC(C)C)C(=O)N3CCc4ccccc43)ccc21", "note": "(stereo not drawn)", "activity change, negative = inhibition": "inactive: -11.9%"},
      {"smiles": "O=C(Nc1ccccc1N1CCOCC1)c1cccc2c(Br)cccc12", "Potency": "inconclusive: 23.1 µM [inhibitor, partial curve]"},
      {"smiles": "CC(C)Nc1nc(NC(C)C)nc(Oc2ccc(=O)n(C)n2)n1", "Potency": "inconclusive: 5.17 µM [activator, full curve]"},
      {"smiles": "COc1cc(N2Cc3ccccc3C2)ccc1C=O", "Potency": "inconclusive: 10.3 µM [activator, partial curve]"},
      {"smiles": "COC(=O)c1nc2ccc(N3CCOCC3)cc2c(C)c1C(=O)OC", "Potency": "inconclusive: 5.17 µM [activator, full curve]"},
      {"smiles": "COc1cccc(CN(C)C(=O)c2cccc(S(=O)(=O)N3CCN(c4ccc(F)cc4)CC3)c2)c1OC", "Potency": "inconclusive: 14.6 µM [inhibitor, partial curve, poor fit]"},
      {"smiles": "CCn1c(=O)cc(OCC(=O)NCCc2cccc(C)c2)c2ccccc21", "Potency": "inconclusive: 29.1 µM [activator, single point]"},
      {"smiles": "CCN(c1ccc(OC)cc1)S(=O)(=O)c1csc(C(=O)N2CCCC2)c1", "activity change, negative = inhibition": "inactive: -2.7%"},
      {"smiles": "CC(C)CN(C(=O)CCCc1nc2ccccc2c(=O)[nH]1)c1c(N)n(Cc2ccccc2)c(=O)[nH]c1=O", "Potency": "inconclusive: 23.1 µM [activator, partial curve, poor fit]"},
      {"smiles": "CCCCn1c(SCC(=O)NCC2CCCO2)nc2ccc(N3CCOCC3)cc2c1=O", "note": "(stereo not drawn)", "Potency": "inconclusive: 22.4 µM [inhibitor, single point]"},
      {"smiles": "Cc1cc(C)n(C2CC(=O)N(c3cccc(Cl)c3)C2=O)n1", "note": "(stereo not drawn)", "activity change, negative = inhibition": "inactive: -7.17%"}
    ]}
  ]
}
